These results are taken from doi:10.1101/069161.

The chains behind the UniProt entries cited, without tags or fusion partners.
UniProt P04150: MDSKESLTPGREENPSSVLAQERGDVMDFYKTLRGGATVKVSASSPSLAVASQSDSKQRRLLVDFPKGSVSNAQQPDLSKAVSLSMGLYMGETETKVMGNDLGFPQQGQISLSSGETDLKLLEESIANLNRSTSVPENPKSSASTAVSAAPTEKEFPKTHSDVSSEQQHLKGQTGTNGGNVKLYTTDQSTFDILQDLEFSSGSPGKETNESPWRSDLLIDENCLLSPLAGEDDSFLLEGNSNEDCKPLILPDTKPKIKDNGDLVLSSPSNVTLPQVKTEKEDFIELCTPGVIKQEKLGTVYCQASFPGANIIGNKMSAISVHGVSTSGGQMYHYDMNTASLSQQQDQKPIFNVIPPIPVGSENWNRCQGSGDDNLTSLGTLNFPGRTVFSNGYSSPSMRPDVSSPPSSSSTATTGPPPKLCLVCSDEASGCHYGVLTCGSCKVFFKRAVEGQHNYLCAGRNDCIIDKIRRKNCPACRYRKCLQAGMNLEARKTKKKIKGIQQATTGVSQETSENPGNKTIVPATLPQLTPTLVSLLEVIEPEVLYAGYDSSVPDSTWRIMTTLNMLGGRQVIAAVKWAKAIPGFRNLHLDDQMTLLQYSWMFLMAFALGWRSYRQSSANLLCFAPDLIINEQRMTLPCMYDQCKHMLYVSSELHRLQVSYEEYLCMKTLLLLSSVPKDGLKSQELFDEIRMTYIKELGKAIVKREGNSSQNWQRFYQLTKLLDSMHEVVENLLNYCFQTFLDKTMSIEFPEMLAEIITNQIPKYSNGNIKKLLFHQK
UniProt Q9UHX1: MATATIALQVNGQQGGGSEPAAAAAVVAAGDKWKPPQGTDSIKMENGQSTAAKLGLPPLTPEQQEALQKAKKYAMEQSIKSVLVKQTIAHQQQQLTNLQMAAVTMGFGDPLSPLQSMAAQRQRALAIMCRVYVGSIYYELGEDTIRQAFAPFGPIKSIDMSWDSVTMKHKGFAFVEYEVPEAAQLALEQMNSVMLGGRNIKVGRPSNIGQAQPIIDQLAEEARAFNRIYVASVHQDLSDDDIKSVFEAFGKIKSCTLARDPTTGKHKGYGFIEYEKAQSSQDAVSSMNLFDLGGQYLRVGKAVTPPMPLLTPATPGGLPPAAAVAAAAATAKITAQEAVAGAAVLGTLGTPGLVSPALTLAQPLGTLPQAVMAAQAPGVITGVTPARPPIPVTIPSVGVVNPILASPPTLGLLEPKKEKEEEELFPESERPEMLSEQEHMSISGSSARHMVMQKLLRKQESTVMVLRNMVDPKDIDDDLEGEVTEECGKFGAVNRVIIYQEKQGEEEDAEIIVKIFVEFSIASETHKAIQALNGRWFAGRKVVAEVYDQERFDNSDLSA
UniProt P26368: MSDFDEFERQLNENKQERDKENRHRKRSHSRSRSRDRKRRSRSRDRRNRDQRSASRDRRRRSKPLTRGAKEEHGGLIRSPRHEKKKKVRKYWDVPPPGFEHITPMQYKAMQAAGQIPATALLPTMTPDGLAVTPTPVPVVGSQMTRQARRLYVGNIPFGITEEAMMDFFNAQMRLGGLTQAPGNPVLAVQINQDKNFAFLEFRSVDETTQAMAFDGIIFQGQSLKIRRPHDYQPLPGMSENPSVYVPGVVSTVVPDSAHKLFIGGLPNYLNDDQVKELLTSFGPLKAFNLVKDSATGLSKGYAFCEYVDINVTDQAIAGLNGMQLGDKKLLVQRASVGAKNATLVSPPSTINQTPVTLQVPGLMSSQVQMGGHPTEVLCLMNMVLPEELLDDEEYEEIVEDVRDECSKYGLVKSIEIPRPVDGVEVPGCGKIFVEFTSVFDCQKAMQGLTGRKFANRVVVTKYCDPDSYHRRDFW

Results are given in words; binding and its absence hold for the method and conditions named. In cells and extracts the contact can be indirect. Some entries that bind do so weakly or less than the wild type. Sequences can lack the tags named with a protein.

What all share (test): co-IP
For assay [1], the target named is T1, FLAG-hARGLU1 (arginine and glutamate rich 1, full length) (human) (UniProt Q9NWB6).
T1 sequence: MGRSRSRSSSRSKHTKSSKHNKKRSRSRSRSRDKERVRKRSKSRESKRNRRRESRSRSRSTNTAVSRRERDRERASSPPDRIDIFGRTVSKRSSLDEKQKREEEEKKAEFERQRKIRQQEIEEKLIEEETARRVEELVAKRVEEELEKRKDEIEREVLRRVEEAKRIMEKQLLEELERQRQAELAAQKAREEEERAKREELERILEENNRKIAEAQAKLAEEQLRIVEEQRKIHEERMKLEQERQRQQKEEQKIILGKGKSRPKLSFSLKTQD

Assay [2] addresses HA-hGR (glucocorticoid receptor) (human) (UniProt P04150).
In the next assay the target is FLAG-PUF60 (human) (UniProt Q9UHX1).
The next assay has as its target FLAG-U2AF2 (human) (UniProt P26368).

Regarding “HA-hGR (glucocorticoid receptor) (from UniProt P04150 1-777)”, the binding result in assay [1] is given as “binds”.

B1: FLAG-MAZ (MYC-associated zinc finger protein) (protein, UniProt P56270 1-477)
chain: MFPVFPCTLLAPPFPVLGLDSRGVGGLMNSFPPPQGHAQNPLQVGAELQSRFFASQGCAQSPFQAAPAPPPTPQAPAAEPLQVDLLPVLAAAQESAAAAAAAAAAAAAVAAAPPAPAAASTVDTAALKQPPAPPPPPPPVSAPAAEAAPPASAATIAAAAATAVVAPTSTVAVAPVASALEKKTKSKGPYICALCAKEFKNGYNLRRHEAIHTGAKAGRVPSGAMKMPTMVPLSLLSVPQLSGAGGGGGEAGAGGGAAAVAAGGVVTTTASGKRIRKNHACEMCGKAFRDVYHLNRHKLSHSDEKPYQCPVCQQRFKRKDRMSYHVRSHDGAVHKPYNCSHCGKSFSRPDHLNSHVRQVHSTERPFKCEKCEAAFATKDRLRAHTVRHEEKVPCHVCGKMLSSAYISDHMKVHSQGPHHVCELCNKGTGEVCPMAAAAAAAAAAAAAAVAAPPTAVGSLSGAEGVPVSSQPLPSQPW
With B1, in assay [2], the binding entry is on record as “no binding”.

B2: FLAG-hARGLU1 (arginine and glutamate rich 1, full length) (protein, UniProt Q9NWB6-1 1-273)
chain: T1 sequence
Regarding B2, in assay [2], the binding result is “binds”.

B3: HA-hARGLU1 (protein, UniProt Q9NWB6-1 1-273)
chain: T1 sequence
As for B3, the binding entry in the assay with FLAG-PUF60 (human) and with FLAG-U2AF2 (human) was “binds” throughout.
